## Percent effect of library compounds

A: 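Whole-cell growth test on Mycobacterium tuberculosis, read after 3 days in glucose-containing 7H9 medium; the read-out is not stated. Tested at 50 µM. Direction is inferred from retests: higher values go with more growth inhibition. About 69,000 compounds were tested under these conditions; 1.1% (about 760) showed 50% or more at least once.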
B: 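Phenotypic screen: M. tuberculosis growth, cholesterol and DPPC medium, 4 days; the read-out is not stated. Compounds at 50 µM. Higher reads as more growth inhibition (inferred: compounds with an IC50 in retests scored well above the rest). About 69,000 compounds were tested under these conditions; 0.54% (about 370) showed 50% or more at least once.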

Results are given as percent effect. The record does not define 0% and 100%; most values in the screen are far below 50% and negative numbers occur (in some assays of this library far below -100). The compounds are a random part of those screened. Two or more numbers in one place are separate tests of the same structure; such repeats can differ widely.

compound | A | B
NC(=O)CN1C[C@@H](c2ccccc2F)[C@@]2(CCCCC(=O)N2)C1 | -22.3 | -6.207 & -11.6
NC(=O)CN(CC(=O)NCc1cc(F)cc(F)c1)C1CCCC1 | 12.2 | 34.35
CNc1cc(C2CCCN(C(=O)c3ccc(=O)[nH]n3)C2)ccn1 (stereo not drawn) | -3.342 | -2.42
CCOc1ccc(NC(=O)c2scnc2CC)cc1CO | 14.26 | -4.141
CN(Cc1ncnn1C)C1CCN(c2sccc2C#N)C1=O (stereo not drawn) | -16.59 | -12.09
O=S(=O)(NCCc1ccccc1C(F)(F)F)N1CCOCC1 | -13.11 | 0.7381 & -47.25
Cc1cc(C(=O)N2CCCC3(CCCN3Cc3cccnc3)C2)[nH]n1 (stereo not drawn) | 17.56 | 1.267
O=C(O)C(F)(F)F.[H][C@]12CCN(Cc3c(C)noc3C)[C@@]1([H])CC[C@H](COCC(C)C)O2 | 3.2 | 13.89
CCc1c(C(=O)N2CCCN(C(C)=O)CC2)cnn1C(C)(C)C | 6.429 | 6.155
Cc1ccccc1SCC(=O)NC1CCC(O)CC1 (stereo not drawn) | -15.31 | 9.839
Cc1nnc(NCc2ccc(N3CCC(CO)CC3)cc2)c(C#N)c1C | -10.06 | 7.539
Cc1nnc(CSc2ccc(C(F)(F)F)cn2)o1 | -38.09 & -4.981 | -11.66
COC(=O)c1ccccc1S(=O)(=O)NC(=O)c1cccc2c1OCCO2 | -25.28 | -9.347
CC(=O)NC1CCCc2c1[nH]c1ccc(F)cc21 (stereo not drawn) | -15.3 | 6.397
Cc1ccccc1CN1CCC2(COCc3cnc(N(C)C)nc32)C1.O=C(O)C(F)(F)F (stereo not drawn) | 53.3 | 8.06
Cc1noc(C)c1C1CCCN1CCC(=O)N1CCc2ccccc2C1 (stereo not drawn) | -9.78 | 7.562
CCN(C(=O)c1nc2c(s1)CCCN2c1ccc(C)nn1)C(C)C | 10.42 | 3.349
Cc1ccc(CN(C(=O)NCC2CCCO2)C2CC2)o1 (stereo not drawn) | 7.278 | -8.689
CN1CCN(c2ccccc2CNC(=O)Cc2cccc(F)c2)CC1 | -33.71 | -8.893
CC(C)CCN1C2(CCN(c3ncccn3)C2)c2ccccc2S1(=O)=O (stereo not drawn) | 13.95 | -5.439
Cn1ccnc1C1(O)CCCN(Cc2ccncc2)CC1 (stereo not drawn) | -9.159 | -9.277 & -13.28
CC(C)(C)Oc1ccc(NCC(=O)NCc2ccco2)cc1 | 4.372 | 11.56
CCC(O)CN(Cc1cccc(C(=O)N(C)C)c1)c1ccccc1 (stereo not drawn) | -19.12 | 10.94
COc1ncnc(N)c1CNCCOc1ccccc1Cl | 24.6 | -8.314
COc1ccc(NCCC(=O)NCc2cccnc2N(C)C)cc1 | 1.042 | 2.745
COc1cccc(CNc2nc(O)cc(C3CC(=O)N(C)C3)n2)c1 (stereo not drawn) | -3.46 | -16.61
O=c1[nH]cnc2c1CCN(S(=O)(=O)c1ccc(Cl)cc1)C2 | 11.43 | 0.4218
CCNc1ncc(C(=O)NCc2csc(-c3ncccn3)n2)cn1 | 5.811 & 5.541 | 17.02
O=C(c1ccc(-n2cnnc2)cc1Cl)N1CCCC(O)(CO)CC1 (stereo not drawn) | 40.65 | -31.79
CC(C)c1nnc(CN2CC(n3cccn3)C2)o1 | -17.24 | -5.855
O=C1CCC2(CCCN(c3ncc(Cl)cc3F)C2)CN1CC1CC1 (stereo not drawn) | 37.04 | -8.391
CC(C)c1cc(C2CCN(C(=O)Cn3cnc4ccccc43)CC2)[nH]n1 | 12.05 | 19.6
[H][C@]12CC[C@]([H])(CN(c3nnc(C(C)C)s3)C1)N(Cc1ccccc1)C2 | 34.81 | 4.72
CC(C)(C)c1cc2ncn(CCCN3CCCCC3CO)c(=O)c2s1 (stereo not drawn) | 4.204 | 6.486
O=C(O)c1ccc(F)c(S(=O)(=O)Nc2c(F)cccc2-n2cccn2)c1 | 9.956 | 3.562
Cc1cc(C)c(CNC(=O)N(C)Cc2ccc3c(c2)OCO3)c(=O)[nH]1 | 20.11 | -11.22
Cn1cc(Cl)cc1C(=O)N1CCN(Cc2cccs2)CC1 | 0.8161 | 1.751
COc1cccc(CN2CCCCCC2c2cccc(C)c2)c1O (stereo not drawn) | 16.99 | 7.319
COc1cccc(CN2CCN(c3ccc4nncn4n3)C(C)C2)c1 (stereo not drawn) | 47.19 | 26.43
[H][C@@]12COC[C@]1(c1nc(C)no1)CN(C(=O)N1CCCC1)C2 | -24.5 | -8.586
O=C(c1ccco1)N1CCC2(CCOC2)C1 (stereo not drawn) | -29.86 | -9.463
COc1cccc(-c2nc(CNCc3cccnc3)cs2)c1 | 0.8118 & 20.61 | 23.36
COc1ccc(OC)c(NC(=O)CSc2ccc3nncn3n2)c1 | 11.78 | -18.82
Cn1nc(C(=O)NC2CC(C)(C)NC(C)(C)C2)cc1NC(=O)C1CC1 | -12.67 | -0.9261
Cc1cnc(C(=O)N2CCc3ncnc(C)c3CC2)cn1 | -3.709 | -14.11
COc1cc(F)c(NC(=O)N(C)Cc2cc(C)on2)cc1F | -4.234 | 0.3919
Cc1ccc(CN(C)C(C(=O)O)c2ccc3c(c2)OCO3)o1 (stereo not drawn) | -9.086 & -2.323 | 12.8
CS(=O)(=O)N1CCN(CC(O)COc2ccc(Cl)cc2)CC1 (stereo not drawn) | -21.6 | 1.376
O=C1CCC2(CCCN(C(=O)c3cnccn3)CC2)N1 (stereo not drawn) | -10.18 | -6.003
[H][C@@]12COC[C@]1(c1nnc(C3CC3)o1)CN(C(=O)c1cc(C)no1)C2 | 10.88 | 16.86
NC(=O)COc1ccc(C(=O)NCCc2ccco2)cc1 | 31.54 & -8.132 | 14.48
N#Cc1ccc(NCC(=O)Nc2ccn(Cc3cccnc3)n2)cc1 | -21.31 | -18.41
CC(=O)N1CCN(C[C@H]2CC[C@@H](Cc3ccc4c(c3)OCO4)O2)CC1 | 2.015 | 8.593
CC[C@@H](CO)Nc1cc(-c2cn[nH]c2)ncn1 | -8.733 | -16.41
CCc1nnsc1C(=O)N1CCN(CC(O)CC)CC1 (stereo not drawn) | 6.349 | 1.326
Cn1c(CN2CCCC(c3noc(C4CC4)n3)C2)cc(=O)n(C)c1=O (stereo not drawn) | 27.67 | 29.06
COc1ccc(C(C)(C)C)cc1CN1CCn2c(CO)nnc2C1.O=C(O)CC(O)(CC(=O)O)C(=O)O | 19.5 | 8.798
COc1cc(OC)c(C2CC(=O)Oc3cc(C)[nH]c(=O)c32)cc1OC (stereo not drawn) | 9.841 | -12.18
O=c1c2ccc(C(F)(F)F)cc2ncn1CCCN1CCCCC1CO (stereo not drawn) | -58.37 | -13.16
CC(C)(O)CN1CCN(C(=O)COCC(F)(F)F)CC1 | 1.026 | 6.031
CC(C)c1nnc2n1CCN(C(=O)c1ccc(Cn3cccc3)cc1)C2 | 27.46 | 24.97
CC(CN1CCCC1)C(=O)N1CCC(c2nccn2CC2CC2)CC1 (stereo not drawn) | 5.251 | -10.54
O=C(O)C(F)(F)F.O=C(c1ccc[nH]1)N1CCc2c(COCC3CC3)cncc2C1 | 0.03434 | -23.69
CNCc1cn(C2CCN(CCC(C)c3ccccc3)CC2)nn1 (stereo not drawn) | -20.92 & -5.52 | -12.84
Nc1nc(CCC(=O)N2C[C@@H](CN3CCCC3)C[C@H](CO)C2)n[nH]1 | 18.49 | -7.657
Cc1nc2sccn2c1CNc1cc(C(=O)O)ccc1F | -4.22 | -22.59
COCCNCc1cc2c(C)cc(C)cc2n2c(=O)n(C)nc12 | 26.16 | -7.061
CC(C)CC(=O)NCCCn1cncn1 | -42.74 | -23.28
O=C(C1SCCc2sccc21)N1CCCCC1 (stereo not drawn) | 4.407 & -21.92 | 1.497
[H][C@]12CC[C@@]3(N=C(CC)N(CC(C)C)C3=O)[C@@]1([H])CN(CC(=O)N(C)C)C2 | 31.28 | 8.874
Cc1nnc(CN(C)CC(=O)NC(C)(C)c2ccc(F)cc2)n1C | 3.663 | 7.799
O=C(Cc1ccsc1)N1CCN(CCOc2ccccc2)CC1 | 21.24 | 21.59
Cn1ncc2c(N3CCCN(C(=O)c4ccsc4)CC3)ncnc21 | -12.35 & 2.233 | -15.73
CN(C)c1ccccc1C(=O)N1CCCC(c2cccc(C(=O)O)c2)C1 (stereo not drawn) | 5.197 | -2.232
Cc1nn(-c2ccccc2)c(C)c1-c1ccnc(N2CCC(O)CC2)n1 | 12.92 | 9.12
CCOCC(=O)N1Cc2nccn2CC(CN(C)C)C1 (stereo not drawn) | -7.931 | 15.05
[H][C@]12CC[C@@]3(N=C(C)N(CC(C)C)C3=O)[C@@]1([H])CN(S(=O)(=O)CC)C2 | -1.982 | -30.8
CC(NC(=O)N(C)Cc1cnn(C)c1)c1nncn1C (stereo not drawn) | -23.82 | -25.25
Fc1cnc(N2CCCC3(CN(Cc4ccccc4)CCO3)C2)nc1.O=C(O)C(F)(F)F (stereo not drawn) | -12.05 & 0.1514 | 8.293
O=C1C(Sc2nc(=O)ccn2C2CC2)CCN1c1ccccc1F (stereo not drawn) | -0.2586 | -27.95
Cc1csc(-c2cccc(NC(=O)NCC(C)(C)C(N)=O)c2)n1 | -3.443 | 9.237

Once more, the final 10:

| compound | A | B |
|---|---|---|
| `O=C(Cc1ccsc1)N1CCN(CCOc2ccccc2)CC1` | 21.24 | 21.59 |
| `Cn1ncc2c(N3CCCN(C(=O)c4ccsc4)CC3)ncnc21` | -12.35 & 2.233 | -15.73 |
| `CN(C)c1ccccc1C(=O)N1CCCC(c2cccc(C(=O)O)c2)C1` (stereo not drawn) | 5.197 | -2.232 |
| `Cc1nn(-c2ccccc2)c(C)c1-c1ccnc(N2CCC(O)CC2)n1` | 12.92 | 9.12 |
| `CCOCC(=O)N1Cc2nccn2CC(CN(C)C)C1` (stereo not drawn) | -7.931 | 15.05 |
| `[H][C@]12CC[C@@]3(N=C(C)N(CC(C)C)C3=O)[C@@]1([H])CN(S(=O)(=O)CC)C2` | -1.982 | -30.8 |
| `CC(NC(=O)N(C)Cc1cnn(C)c1)c1nncn1C` (stereo not drawn) | -23.82 | -25.25 |
| `Fc1cnc(N2CCCC3(CN(Cc4ccccc4)CCO3)C2)nc1.O=C(O)C(F)(F)F` (stereo not drawn) | -12.05 & 0.1514 | 8.293 |
| `O=C1C(Sc2nc(=O)ccn2C2CC2)CCN1c1ccccc1F` (stereo not drawn) | -0.2586 | -27.95 |
| `Cc1csc(-c2cccc(NC(=O)NCC(C)(C)C(N)=O)c2)n1` | -3.443 | 9.237 |

The values are deposited in ChEMBL (CHEMBL3988442, “University of Dundee, Small-Polar-MMV Screening Library” (2021)).